Laboratory results: US20050250166A1, “Cdc7-ask kinase complex, substrates of the kinase complex, antibody specific to the substrate, and method of screening compound capable of inhibiting cdc7-ask kinase using the same” (Medical and Biological Laboratories Co. Ltd., priority 2002, published 2005)
At least one compound was matched to its structure with a doubt left.

Protein sequences, listed by entry. Tags and fused reporters are not part of them. Residues count along the entry.
UniProt O00311, 14-574 limits assumed: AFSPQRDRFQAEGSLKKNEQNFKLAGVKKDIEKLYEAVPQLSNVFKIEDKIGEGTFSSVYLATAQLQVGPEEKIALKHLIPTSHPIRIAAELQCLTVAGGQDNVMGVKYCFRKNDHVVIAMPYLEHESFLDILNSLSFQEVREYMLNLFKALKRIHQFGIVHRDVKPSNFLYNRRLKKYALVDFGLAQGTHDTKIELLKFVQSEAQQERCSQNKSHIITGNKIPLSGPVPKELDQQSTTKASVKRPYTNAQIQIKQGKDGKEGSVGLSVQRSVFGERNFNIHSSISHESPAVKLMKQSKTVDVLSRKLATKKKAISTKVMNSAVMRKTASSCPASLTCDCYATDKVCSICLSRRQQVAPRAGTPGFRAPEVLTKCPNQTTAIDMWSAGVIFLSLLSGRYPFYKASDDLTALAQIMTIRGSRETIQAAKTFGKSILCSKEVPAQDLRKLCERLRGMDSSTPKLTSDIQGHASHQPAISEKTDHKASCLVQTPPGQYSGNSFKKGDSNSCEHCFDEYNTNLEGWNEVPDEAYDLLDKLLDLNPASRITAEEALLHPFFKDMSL

Biological target: T1, Cdc7-ASK complex (Homo sapiens, UniProt O00311)
T1 construct: made in house; host or cells: E. coli C600 lon-
Experiment: ELISA system for measuring inhibition of Cdc7-ASK complex phosphorylation activity (GST-Mcm2 (1-130 a.a.) substrate, anti-Mcm2-phospho-S17 antibody)
Assay type: biochemical
Conditions: inhibitor dilution series, FIG. 8

## Cn1cnc2c(NCc3ccccc3)nc(NCCO)nc21 [Olomoucine]
  concentration-dependent inhibitory effect for Cdc7-ASK complex: not observed
